Data reported in publication doi:10.1101/2024.05.31.596839.
Results are given in words; binding and its absence hold for the method and conditions named. Some binding calls cover weakened binding; strength is not graded here.

Target: T1, BoYb (Drosophila) (UniProt Q9VNP5)
T1 sequence: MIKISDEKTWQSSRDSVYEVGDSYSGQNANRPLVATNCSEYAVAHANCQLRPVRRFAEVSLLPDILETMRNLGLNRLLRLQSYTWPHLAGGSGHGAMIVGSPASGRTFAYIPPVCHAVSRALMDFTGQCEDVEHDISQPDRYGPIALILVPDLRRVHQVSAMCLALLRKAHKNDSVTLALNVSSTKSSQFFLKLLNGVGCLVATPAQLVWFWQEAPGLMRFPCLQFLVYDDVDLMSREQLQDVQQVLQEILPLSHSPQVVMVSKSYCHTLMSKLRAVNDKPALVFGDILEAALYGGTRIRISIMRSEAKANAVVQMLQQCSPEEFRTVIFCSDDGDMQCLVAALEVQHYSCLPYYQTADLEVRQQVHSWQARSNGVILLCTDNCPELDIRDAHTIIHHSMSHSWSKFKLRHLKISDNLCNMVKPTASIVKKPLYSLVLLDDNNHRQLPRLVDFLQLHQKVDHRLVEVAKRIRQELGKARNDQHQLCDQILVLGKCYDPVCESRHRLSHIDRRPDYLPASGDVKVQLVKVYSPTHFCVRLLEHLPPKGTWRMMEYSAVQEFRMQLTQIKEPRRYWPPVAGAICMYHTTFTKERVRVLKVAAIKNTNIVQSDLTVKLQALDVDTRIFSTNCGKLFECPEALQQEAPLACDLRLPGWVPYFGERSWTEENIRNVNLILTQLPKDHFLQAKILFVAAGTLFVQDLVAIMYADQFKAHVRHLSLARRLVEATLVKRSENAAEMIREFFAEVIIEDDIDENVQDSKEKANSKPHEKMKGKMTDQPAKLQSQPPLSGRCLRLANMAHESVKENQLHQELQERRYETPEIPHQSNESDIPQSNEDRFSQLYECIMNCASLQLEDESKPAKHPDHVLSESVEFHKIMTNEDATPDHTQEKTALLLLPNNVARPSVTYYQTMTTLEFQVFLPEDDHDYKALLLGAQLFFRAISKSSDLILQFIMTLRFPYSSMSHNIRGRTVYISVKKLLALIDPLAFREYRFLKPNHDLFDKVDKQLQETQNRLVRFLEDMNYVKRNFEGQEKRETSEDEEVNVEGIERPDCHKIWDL
Assay: ReLo

B1: Vreteno (protein, UniProt Q9VCU7 1-691)
chain: MESESSQDDWSAFDPMSREYYDQVGNRYTNESGQKLIMEAPLPPKDEKEQRATRQAKYPYLVVPKSSPYVTEKMLINFFGRALIKEMEFRRLSRVYFVYFENIASLETAQQRVQRYPNLIKCITGRPQKEREITSDPVTSTEPMPTPGPAISATERTPVNHNREVPISTGGQNHPEFFRPPLVTKDDYKRGSLLATNDPIQRYLNVKYEFALERHDIYKLKDETRIPQVVLHFRSGRTIPLSTVAVTEEDKTKSLLEDGVSKCVVCQNWTDTFCKLCKMPFCNASCFADVAEQHKQACGKGEILNLDEKVGRKYPKPGLPPSGSKVRITAFEQTNVVYVRSADIQIDIAYYTVLTEVMMLGKDASKLQSTPVCGQIVLYKFEGHMSRAMVLNVDNIKEIYVVFIDFGSVEVTQLERLYECSSYLAGLTCYPVAVKLRGVPRRFVGPNIREVMYELDQSLVFNIKYSSREYDTSKGMQVVVMTEIDINRSLNRLFKTILTPVEPSVSDLGYKEDCLPYIPLHCGKNINVVVMDNTFIQCGFIYCTSIDLAYEVTKMQRDIQEYGEKIAKCATYAPPINELCIAKYEGKWRRGLSVELVGDGYPSILFIDYGNIVPTHVTDIRPYPPQFIFPIMTTQLDLIGVPEKPTDEQIKWLDKNYPIGSVITCSEITFDEETNSYSTRIEKLQEFLSLD
binding: binds
